Assay results as given in the supplement of paper PMC7125110.
± gives the standard error. For some of these results: Many entries were measured with a wide error.

B1: glmS ribozyme (parent)
chain: AUAAAAGCGCCAGAACUACAGAAAUGUAGUUGACGAGGAGGAGGUUUAUCGAAUUUUCGGCGGAUGCCUCCAAA

Variants of: B1
Test: self-cleavage kobs at 640 uM GlcN6P; higher = faster cleavage; RNA array
Conditions: with glucosamine-6-phosphate
Method in brief: (§1)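 Tiles of sequenced MiSeq chips were imaged over ~14 h at 37 °C. On them, barcoded ribozyme variants had been transcribed in situ by E. coli RNA polymerase and were tracked via a hybridised Cy3 probe while glucosamine-6-phosphate (40 μM to 10 mM) in HEPES/KCl/Mg(OAc)2 buffer flowed in. Per-tile medians, normalised to baseline and to non-cleaving reference variants, were fit to one- or two-exponential decays for kobs, and weighted Michaelis–Menten fits gave kcat and KM.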

Variant | self-cleavage kobs at 640 uM GlcN6P
C10U U55A | 1.78e-05 ± 1.7e-05 s⁻¹
A6U G13A G59U C61G C68U | 3.8e-05 ± 3.2e-05 s⁻¹
C10G A12U C34A C58U C67G | 0.0648 ± 0.034 s⁻¹
G7A A12U | 2.23e-05 ± 1.4e-05 s⁻¹
A6U A39G | 2.3e-05 ± 1.5e-05 s⁻¹
A6U A15C | 1.95e-05 ± 1e-05 s⁻¹
G7A G29C C34U G37U C67U C71A | 0.00155 ± 0.00086 s⁻¹
A6C G29A U57G U69G | 3.83e-05 ± 3e-05 s⁻¹
C10A G59A C68G U69C | 2.96e-05 ± 2.8e-05 s⁻¹
C8G U47G C50A U65G C70G | 3.07e-05 ± 3.1e-05 s⁻¹
G7U U30G U69A | 3.19e-05 ± 2.6e-05 s⁻¹
A15G G51A U69G | 4.77e-05 ± 3.2e-05 s⁻¹
C10A U46G C50U C68U | 4.95e-05 ± 2.8e-05 s⁻¹
G13A C50G G66U | 0.000406 ± 0.00023 s⁻¹
C10A U46G C68G | 4.9e-05 ± 3.1e-05 s⁻¹
C50G G66A | 4.27e-05 ± 2.3e-05 s⁻¹
C10G G29U G32U C71G | 5.4e-05 ± 4.3e-05 s⁻¹

Variants of: B1
Test: self-cleavage kobs at 40 uM GlcN6P; higher = faster cleavage; RNA array
Conditions: with glucosamine-6-phosphate
Method in brief: as §1

Variant | self-cleavage kobs at 40 uM GlcN6P
A15C C71G | 1.25e-05 ± 1.1e-05 s⁻¹
U55C G66C | 1.94e-05 ± 1.1e-05 s⁻¹
C58G C67G | 1.82e-05 ± 1.1e-05 s⁻¹
G29U U69A | 2.15e-05 ± 1.4e-05 s⁻¹
G32A C67U | 1.43e-05 ± 8.8e-06 s⁻¹
G60A C71G | 0.00245 ± 0.0019 s⁻¹
A12U G37A G40C | 3.31e-05 ± 1.7e-05 s⁻¹
A15C U46G | 4.41e-05 ± 2.4e-05 s⁻¹
G13C A14G U69G | 3.32e-05 ± 2.1e-05 s⁻¹
A14U U45G | 1.25e-05 ± 1.2e-05 s⁻¹
A6G A15G | 2.4e-05 ± 1.5e-05 s⁻¹
U57G C58G | 2.05e-05 ± 1.8e-05 s⁻¹
C58G C67G C68U | 2.59e-05 ± 1.8e-05 s⁻¹
U31C A53C | 2.38e-05 ± 1.4e-05 s⁻¹
C8G G32A A36U C61A G63U C68G | 3.13e-05 ± 2.4e-05 s⁻¹
U65A C68A | 2.43e-05 ± 1.3e-05 s⁻¹
G32U C34U A36G G51A C70G | 3.38e-05 ± 2.2e-05 s⁻¹
G38U G62A C68G | 3.45e-05 ± 2.5e-05 s⁻¹
C16G G38U C50G U54C | 3.83e-05 ± 2.6e-05 s⁻¹
G32U U55G | 2.75e-05 ± 2.4e-05 s⁻¹

Variant | self-cleavage kobs at 40 uM GlcN6P
A15G G51A U69G | 3.07e-05 ± 2.3e-05 s⁻¹
C16A C68G | 1.43e-05 ± 1.2e-05 s⁻¹
C11U C70G | 2.11e-05 ± 1.4e-05 s⁻¹
C11G U30C G51U C61G U69A | 2.34e-05 ± 2.3e-05 s⁻¹
C10A U46G C50U C68U | 3.01e-05 ± 2.7e-05 s⁻¹
A12G A39G | 1.88e-05 ± 1.5e-05 s⁻¹
A15U U56C | 1.75e-05 ± 9.1e-06 s⁻¹
U31C U47C C70U | 2.84e-05 ± 2.8e-05 s⁻¹
C11A U49C U65G C68U | 3.66e-05 ± 2.3e-05 s⁻¹
G13A C50G G66U | 0.000522 ± 0.00027 s⁻¹
U31G A36C C70G | 3.9e-05 ± 2.8e-05 s⁻¹
A14U G37A | 2.98e-05 ± 1.8e-05 s⁻¹
A12U A42U | 1.58e-05 ± 1.2e-05 s⁻¹
U30C A42G | 2.53e-05 ± 2.1e-05 s⁻¹
C11U A42G U54A | 4.09e-05 ± 2.7e-05 s⁻¹
U31G A36U C50A C71G | 5.86e-05 ± 3.4e-05 s⁻¹
G41U C67G C68A | 5.83e-05 ± 3.1e-05 s⁻¹
A53U C70G C71G | 2.59e-05 ± 1.8e-05 s⁻¹
G7U U55G C70G | 4.68e-05 ± 4.2e-05 s⁻¹
G44A A53G | 2.01e-05 ± 1.8e-05 s⁻¹

Some of the entries so far, as tab-separated lines.
Variant	self-cleavage kobs at 40 uM GlcN6P
U65A C68A	2.43e-05 ± 1.3e-05 s⁻¹
A15U U56C	1.75e-05 ± 9.1e-06 s⁻¹
U31G A36U C50A C71G	5.86e-05 ± 3.4e-05 s⁻¹

Single entries from the results shown:
self-cleavage kobs at 40 uM GlcN6P with U31G A36C C70G reads 3.9e-05 ± 2.8e-05 s⁻¹
self-cleavage kobs at 40 uM GlcN6P with A12U A42U reads 1.58e-05 ± 1.2e-05 s⁻¹
self-cleavage kobs at 40 uM GlcN6P with A15G G51A U69G reads 3.07e-05 ± 2.3e-05 s⁻¹
self-cleavage kobs at 40 uM GlcN6P with C11A U49C U65G C68U reads 3.66e-05 ± 2.3e-05 s⁻¹
self-cleavage kobs at 40 uM GlcN6P with G13C A14G U69G reads 3.32e-05 ± 2.1e-05 s⁻¹

(further entries)

Variant | self-cleavage kobs at 40 uM GlcN6P
U31G G32A A64G | 3.44e-05 ± 2.6e-05 s⁻¹
C16U A53U C67G | 2.61e-05 ± 1.6e-05 s⁻¹
A15C G40U | 1.89e-05 ± 1.1e-05 s⁻¹
G13A U45A | 2.35e-05 ± 1.4e-05 s⁻¹
U30G U31C A39U | 2.11e-05 ± 1.8e-05 s⁻¹
G29A U55G | 1.93e-05 ± 1.5e-05 s⁻¹
C50G G66A | 3.26e-05 ± 2e-05 s⁻¹
U56A C68G | 2.48e-05 ± 1.4e-05 s⁻¹
A36U G66U C68A | 3.24e-05 ± 3.1e-05 s⁻¹
C8U C34U U55G C70G C71U | 3.21e-05 ± 3.1e-05 s⁻¹
U30G C68U | 1.94e-05 ± 1.3e-05 s⁻¹
G37A U45G | 1.62e-05 ± 1.1e-05 s⁻¹
U46G C50U C68G | 4.29e-05 ± 2.7e-05 s⁻¹
C50A C68A C70G | 3.45e-05 ± 2.1e-05 s⁻¹
G32U C70U | 1.41e-05 ± 1e-05 s⁻¹
C8G A36U C70G | 2.57e-05 ± 2.2e-05 s⁻¹
G7A U49A C50U U54G C70G | 3.97e-05 ± 2.9e-05 s⁻¹
A12C A15G C50G U56G C67G | 4.09e-05 ± 2.1e-05 s⁻¹

Variants of: B1
Test: self-cleavage kobs at 2500 uM GlcN6P; higher = faster cleavage; RNA array
Conditions: with glucosamine-6-phosphate
Method in brief: as §1

Variant | self-cleavage kobs at 2500 uM GlcN6P
A6U G13A G59U C61G C68U | 4.95e-05 ± 2.7e-05 s⁻¹
A6C G29A U57G U69G | 4.29e-05 ± 3.8e-05 s⁻¹
C10A G59A C68G U69C | 4.01e-05 ± 2.1e-05 s⁻¹
G32U C34U A36G G51A C70G | 4e-05 ± 2.4e-05 s⁻¹
C10A U46G C50U C68U | 0.00195 ± 0.0018 s⁻¹
G13A C50G G66U | 6.18e-05 ± 3.4e-05 s⁻¹
U31G A36C C70G | 5.41e-05 ± 4.4e-05 s⁻¹
C11U A42G U54A | 0.000509 ± 0.00027 s⁻¹
C50G G66A | 4.29e-05 ± 2.4e-05 s⁻¹

Variants of: B1
Test: self-cleavage kobs at 160 uM GlcN6P; higher = faster cleavage; RNA array
Conditions: with glucosamine-6-phosphate
Method in brief: as §1

Variant | self-cleavage kobs at 160 uM GlcN6P
G29U U69A | 3.11e-05 ± 1.7e-05 s⁻¹
U57G C58G | 5.61e-05 ± 2.9e-05 s⁻¹
C16A C68G | 9.56e-05 ± 8.4e-05 s⁻¹
C11G U30C G51U C61G U69A | 5.89e-05 ± 3.3e-05 s⁻¹

Variants of: B1
Test: self-cleavage kobs at 10000 uM GlcN6P; higher = faster cleavage; RNA array
Conditions: with glucosamine-6-phosphate
Method in brief: as §1

Variant | self-cleavage kobs at 10000 uM GlcN6P
C58G C67G C68U | 1.95e-05 ± 1.8e-05 s⁻¹
G32U C34U A36G G51A C70G | 2.37e-05 ± 2.3e-05 s⁻¹
C16G G38U C50G U54C | 2.34e-05 ± 2.1e-05 s⁻¹
A15G G51A U69G | 2.21e-05 ± 1.7e-05 s⁻¹
C11G U30C G51U C61G U69A | 2.51e-05 ± 1.6e-05 s⁻¹
C10A U46G C50U C68U | 3.15e-05 ± 1.8e-05 s⁻¹
G7U U55G C70G | 3.57e-05 ± 2e-05 s⁻¹
U46G C50U C68G | 2.88e-05 ± 2.1e-05 s⁻¹

Variants of: B1
Test: KM; higher = weaker cofactor use; RNA array
Conditions: with glucosamine-6-phosphate
Method in brief: as §1

Variant | KM
C70U C71A | 607 ± 110 µM
